# Source: PubChem BioAssay AID504834 (National Center for Advancing Translational Sciences (NCATS), 2011)
# In all, about 320,000 compounds went through this assay and about 22,000 (6.9%) were called active. The inconclusive results got no clear call from the source; some entries with a clear call stand among them for comparison. Calls follow the shape of the dose curve; as a rule, active = well fitted inhibition curve with a large enough effect; inconclusive = small, poorly fitted or top-dose-only effect, or another doubt; inactive = no such curve, though single readings can be large or run the other way. A potency beside an inconclusive call is a rough fit, not a confirmed value.
# Test: Primary qHTS for delayed death inhibitors of the malarial parasite plastid, 96 hour incubation
# Conditions: P. falciparum luciferase reporter growth; series mostly up to 28.7 µM
# Method in brief: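 Readout is luminescence from an integrated firefly luciferase in P. falciparum. Red cells, 2% hematocrit and 0.05% parasitemia final, were cultured with compound through two parasite generations (96 hours) at 37 C, 5% CO2.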
# Potency is read from the fitted curve at half-maximal effect.
row,Compound,Potency
1,Cc1ccc2c(Cl)cc(Cl)c(OCC(=O)NC(=O)NCc3ccco3)c2n1,"inconclusive: 2.62 µM [inhibitor, full curve, poor fit]"
2,Oc1ccc(-c2c(C3=CCCCC3)sc3ccccc23)cc1,"inconclusive: 16.5 µM [inhibitor, single point]"
3,CC(C(=O)Nc1ccc(S(=O)(=O)N2CCOCC2)cc1)N1CCN(c2ccccn2)CC1 (stereo not drawn),"inconclusive: 0.0657 µM [inhibitor, full curve]"
4,Cc1ccc(OCC(=O)Nc2ccc(S(=O)(=O)N(C)C3CCN(C)CC3)cc2)c(C)c1,"inconclusive: 1.65 µM [inhibitor, partial curve, poor fit]"
5,O=C(CN(C1CC1)S(=O)(=O)c1ccc(S(=O)(=O)N2CCCCCC2)cc1)Nc1ccccc1,"inconclusive: 11.7 µM [inhibitor, single point]"
6,O=C(Nc1ccnn1C1CCN(C(=O)c2ccc(C(F)(F)F)cc2)CC1)C1CC1,"inconclusive: 14.7 µM [inhibitor, partial curve]"
7,CC(C)=CCCC(C)CN1CCC(n2nccc2NC(=O)c2ccc3c(c2)OCO3)CC1 (stereo not drawn),"inconclusive: 7.38 µM [inhibitor, partial curve, poor fit]"
8,COc1cccc(OC)c1NC(=O)Cn1nc(C)c2ccccc2c1=O,"inconclusive: 7.38 µM [inhibitor, partial curve, poor fit]"
9,Cc1ccc(NC(=S)N/N=C/c2ccc([N+](=O)[O-])s2)cc1,inactive
10,CCOc1ccccc1-n1c(SCC(N)=O)nnc1-c1cccnc1,active: 11.7 µM
11,COc1ccc(-n2c(CCc3ccccc3)nnc2SCC(=O)c2ccc(Cl)cc2)cc1,"inconclusive: 16.5 µM [inhibitor, single point]"
12,CCCOc1ccccc1C1NC(=O)NC(C)=C1C(=O)OCCOC(C)C (stereo not drawn),active: 11.7 µM
13,COC(=O)c1sccc1-n1cccc1C(=O)C(=O)Nc1ccc(F)cc1,inactive
14,CCC(=O)Nc1nnc(/C=C/c2ccccc2)s1,inactive
15,CSCCCN1CC[C@@H](N2CCN(c3ccccc3F)CC2)[C@H](O)C1,"inconclusive: 18.5 µM [inhibitor, single point]"
16,CC(NC(=O)c1ccc(Br)cc1)c1ccccc1 (stereo not drawn),"inconclusive: 11.7 µM [inhibitor, single point]"
17,CNC(=O)NC(=O)Cn1cnc2sc(-c3ccccc3)cc2c1=O,inactive
18,CCc1ccc(C2CC(c3cccc(Cl)c3)n3nc(N)nc3N2)cc1 (stereo not drawn),"inconclusive: 18.5 µM [inhibitor, single point]"
19,Cc1nn(Cc2ccccc2)c(C)c1C=C1C(=O)NC(=O)NC1=O,active: 8.28 µM
20,Nc1ccc2c(c1)ncn2CCCn1cnc2cc(N)ccc21,inactive
21,CC(Sc1nnc(C2CC2)n1C)C(=O)Nc1ccc2c(c1)CCC2 (stereo not drawn),inactive
22,CC1CC(C)(C)NCCNC(C)CC(C)(C)NCCN1 (stereo not drawn),"inconclusive: 18.5 µM [inhibitor, single point]"
23,O=C(CNC(=S)N(CCCN1CCOCC1)Cc1cccs1)NC1CC1,"inconclusive: 13.1 µM [inhibitor, single point]"

row,Compound,Potency
1,O=C(NNC(=O)c1cc(-c2cccnc2)nc2ccccc12)Nc1ccc(Cl)cc1,"inconclusive: 18.5 µM [inhibitor, single point]"
2,O=C(CSc1nnc(CNC(=O)c2c(F)cccc2Cl)o1)NCc1ccc2c(c1)OCO2,"inconclusive: 18.5 µM [inhibitor, single point]"
3,COc1ccc(-c2ccc(-c3nnc(-c4ccncc4)o3)cc2)cc1,"inconclusive: 18.5 µM [inhibitor, single point]"
4,COC(=O)C/C=C/[C@@H](C)[C@@H](/C=N/OC[C@H]1O[C@H](c2ccccc2)C=C[C@@H]1Oc1ccc(OC)cc1)OC,"inconclusive: 18.5 µM [inhibitor, single point]"
5,O=[N+]([O-])c1ccc(N2CCCC2)cc1NC1CC1,"inconclusive: 11.7 µM [inhibitor, single point]"
6,CCCCn1nc(NC(=O)CC)c2cc3cc(OC)ccc3nc21,"inconclusive: 9.28 µM [inhibitor, single point]"
7,CCCN1C(=O)/C(=C/c2c(N3CCNC(=O)C3CC(=O)OC)nc3c(C)cccn3c2=O)SC1=S (stereo not drawn),"inconclusive: 3.7 µM [inhibitor, partial curve]"
8,CCC1CCCCN1C(=O)c1cc(COc2ccc3ncccc3c2)on1 (stereo not drawn),"inconclusive: 16.5 µM [inhibitor, single point]"
9,CCCN1CCC(=O)N([C@H](CSc2ccc(OC)cc2)c2ccccc2)CC1,"inconclusive: 18.5 µM [inhibitor, single point]"
10,CCOC(=O)c1c(NC(=O)c2ccccc2)sc2c1CCc1ccccc1-2,"inconclusive: 9.28 µM [inhibitor, single point]"
11,O=C(NCc1ccc2c(c1)OCO2)C1CCC(=O)N1C1CCCC1 (stereo not drawn),"inconclusive: 18.5 µM [inhibitor, single point]"
12,O=C(C1CC(c2ccc(F)cc2)=NO1)N1CCN(c2ccccc2)CC1 (stereo not drawn),"inconclusive: 18.5 µM [inhibitor, single point]"
13,Cc1ccc(CN2CCN(C3CCOCC3)CC2CCO)cc1 (stereo not drawn),"inconclusive: 11.7 µM [inhibitor, single point]"
14,COc1ccc(S(=O)(=O)N2c3ccccc3OCC2C)cc1 (stereo not drawn),"inconclusive: 18.5 µM [inhibitor, single point]"
15,COCc1nnc(NC(=O)c2cc3ccccc3o2)s1,"inconclusive: 11.7 µM [inhibitor, partial curve]"
16,CC(OC(=O)Cc1ccsc1)C(=O)Nc1ccc(C(N)=O)cc1 (stereo not drawn),"inconclusive: 0.208 µM [inhibitor, full curve, poor fit]"
17,COC(=O)c1c(NC(=O)c2ccc(N(C)S(=O)(=O)c3ccc(C)cc3)cc2)sc2c1CCCC2,"inconclusive: 14.7 µM [inhibitor, single point]"
18,O=C(CCn1cccn1)Nc1ccc2c(c1)OCCO2,inactive
19,CC[C@@]12CCCN3CCc4c(n(c5ccccc45)C(=O)C1)[C@H]32,active: 6.42 µM
20,Cc1ccc(OCCNC(=O)CNC(=O)c2ccccc2Cl)cc1,inactive
21,O=C(O)CCC(=O)NNC(=O)c1cccc(Cl)c1,inactive
22,Cn1cnnc1SCC(=O)Nc1nc(-c2ccccc2)cs1,"inconclusive: 18.5 µM [inhibitor, single point]"
23,CC(=O)NCC(=O)OC(C(=O)c1ccccc1)c1ccc(Cl)cc1 (stereo not drawn),"inconclusive: 18.5 µM [inhibitor, single point]"

# Single entries from the results shown:
# Value of O=C(CSc1nnc(CNC(=O)c2c(F)cccc2Cl)o1)NCc1ccc2c(c1)OCO2 under Potency: inconclusive: 18.5 µM [inhibitor, single point]
# Value of O=C(NNC(=O)c1cc(-c2cccnc2)nc2ccccc12)Nc1ccc(Cl)cc1 under Potency: inconclusive: 18.5 µM [inhibitor, single point]
# Value of CC[C@@]12CCCN3CCc4c(n(c5ccccc45)C(=O)C1)[C@H]32 under Potency: active: 6.42 µM
# Value of CCCN1C(=O)/C(=C/c2c(N3CCNC(=O)C3CC(=O)OC)nc3c(C)cccn3c2=O)SC1=S (stereo not drawn) under Potency: inconclusive: 3.7 µM [inhibitor, partial curve]
# Value of O=C(CCn1cccn1)Nc1ccc2c(c1)OCCO2 under Potency: inactive

# Additional structures follow.

row,Compound,Potency
1,CN(Cc1cn(C)nc1-c1ccccc1F)Cc1nccn1C,"inconclusive: 18.5 µM [inhibitor, single point]"
2,COc1ccc(NC(=O)CN2CCCC2c2cccs2)cc1S(=O)(=O)N1CCCCC1 (stereo not drawn),"inconclusive: 4.65 µM [inhibitor, partial curve, poor fit]"
3,CC1(C(=O)N2CC3(CC(c4cccc(NC(=O)COc5ccc(Cl)cc5)c4)=NO3)C[C@@H]2C(N)=O)CC1 (stereo partly drawn),"inconclusive: 10.4 µM [inhibitor, single point]"
4,C/C(CC(=O)NCc1ccco1)=N\NC(=O)COc1ccc(C)cc1,inactive
5,Cc1ccc(CNC(=O)c2ccc(N3CCCC3=O)cc2)cc1,inactive
6,Cc1ccc(C2=Nc3ccccc3NC(C)(c3ccc(C)o3)C2)o1 (stereo not drawn),"inconclusive: 18.5 µM [inhibitor, single point]"
7,CC1CCN(CCCNC(=O)c2ccc3c(Cl)c4c(nc3c2)CCCC4)CC1,"inconclusive: 14.7 µM [inhibitor, single point]"
8,c1cnn(Cc2cnc(N3CCOCC3)s2)c1,inactive
9,COCc1ccc(CN2CCC(n3nccc3NC(=O)C(OC)c3ccccc3)CC2)o1 (stereo not drawn),"inconclusive: 1.65 µM [inhibitor, partial curve, poor fit]"
10,O=C(Nc1nnc(Cc2ccccc2)s1)C1CCC1,active: 1.65 µM
11,COc1ccc(/C=C2\SC(=O)N(CCNC(=O)CN3C(=O)NC4(CCCC4)C3=O)C2=O)cc1,inactive
12,c1cncc(CNc2nc(-c3cccnc3)nc3ccccc23)c1,"inconclusive: 11.7 µM [inhibitor, single point]"
13,Cc1cc(C(=O)COC(=O)CNC(=O)c2ccco2)c(C)n1Cc1ccco1,inactive
14,O=C(N/N=C/c1cccnc1)c1ccc(NC(=O)c2ccccc2Cl)cc1,inactive
15,O=S(=O)(c1ccccc1)N1CCN=C1SCc1c(F)cccc1Cl,"inconclusive: 18.5 µM [inhibitor, single point]"
16,CSCC[C@H](NC(=O)c1cccnc1)c1nnc2ccccn12,inactive
17,CCOC(=O)N1CCN(S(=O)(=O)N(C)C)CC1,"inconclusive: 9.28 µM [inhibitor, partial curve, poor fit]"
18,O=C1CC(c2ccc(F)cc2)CC2=C1C(c1ccc([N+](=O)[O-])o1)Nc1ccccc1N2 (stereo not drawn),"inconclusive: 11.7 µM [inhibitor, partial curve, poor fit]"
19,O=C(NCCOc1ccc(F)cc1)C1CCC(=O)N(CC2CCCCC2)C1 (stereo not drawn),"inconclusive: 11.7 µM [inhibitor, single point]"
20,COc1cc(/C=C/C(=O)c2ccc(O)cc2)ccc1OCC#N,"inconclusive: 18.5 µM [inhibitor, partial curve, poor fit]"
21,CC(C)CC(=O)Nc1ccc2oc(-c3ccncc3)nc2c1,"inconclusive: 18.5 µM [inhibitor, single point]"
22,CC1=NN(c2ccc(Cl)cc2)C(=O)C1C(c1ccccc1O)c1c(C)[nH]n(-c2ccc(Cl)cc2)c1=O (stereo not drawn),"inconclusive: 9.28 µM [inhibitor, partial curve]"
